According to PMC11685124:
The exact form of at least one protein or probe is not confirmed. For part of these data: Negatives hold for the conditions tested.

Columns and labels:
[1] = system: MBP-RrMYB111 (Rosa rugosa cv. Zizhi); test: competition with a labelled probe; settings: EMSA (Beyotime Chemiluminescent kit): 2 µl of 1 mg/ml protein, biotin probe 10 µM, binding buffer, recombinant protein, protein details: N-terminal MBP (pMAL-c2X)
[2] = system: MBP-RrMYB12 (Rosa rugosa cv. Zizhi); test: competition with a labelled probe; settings: EMSA (Beyotime Chemiluminescent kit): 2 µl of 1 mg/ml protein, biotin probe 10 µM, binding buffer, recombinant protein, protein details: N-terminal MBP (pMAL-c2X)
[3] = system: MBP-RrMYB111 (Rosa rugosa cv. Zizhi); test: EMSA; settings: EMSA (Beyotime Chemiluminescent kit): 2 µl of 1 mg/ml protein, biotin probe 10 µM; binding buffer; recombinant protein; protein details: N-terminal MBP (pMAL-c2X); label: 5' biotin
[4] = system: MBP-RrMYB12 (Rosa rugosa cv. Zizhi); test: EMSA; settings: EMSA (Beyotime Chemiluminescent kit): 2 µl of 1 mg/ml protein, biotin probe 10 µM; binding buffer; recombinant protein; protein details: N-terminal MBP (pMAL-c2X); label: 5' biotin
[5] = mutant competitor vs biotin probe
[6] = excess cold probe vs biotin probe

TCTAACAAAAATATCGTGTATTAAAAAAAGATTTTAATAAAAGATTTAGC (double strand) [RrFLS promoter mutant (no-competitive) probe]
binding result [1, 5]: no binding
binding result [2, 5]: no binding

TCTAACAAAAATATCGTGTATTTAACTGAGATTTTAATAAAAGATTTAGC (double strand) [RrFLS promoter competitive probe (unlabeled)]
binding result [1, 6]: binds
binding result [2, 6]: binds

TCTAACAAAAATATCGTGTATTTAACTGAGATTTTAATAAAAGATTTAGC (double strand) [RrFLS promoter probe (biotin)]
binding result [3]: binds
binding result [4]: binds
